This is one part of the list. The main result of the screen is listed elsewhere. These columns were measured beside it and carry no call. Compounds called inactive in the main read-out are mostly missing here. The note in brackets gives the kind of curve behind each potency; many fits are weak.
Test: qHTS Assay for Modulators of Lamin A Splicing
Settings: HeLa LMNA splicing GFP/RFP minigene ratio, 48 h
How it was run: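 Read-out is the ratio of GFP to DsRed2 object intensity, acquired by 488 nm laser-scanning cytometry on HeLa lamin A-EGFP minigene reporter cells. Compound incubation 48 hrs at 37 °C in Opti-MEM with 2% FBS; DMSO 0.5% final.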

[1] = measured here: GFP splicing reporter channel
[2] = measured here: RFP viability control channel

Structure (SMILES) | AC50 [1] | AC50 [2]
Cc1cc(C)c2oc(C(=O)Nc3nnc(C(C)C)s3)cc(=O)c2c1 | 0.00891 µM [rising, full curve, poor fit] | 0.00631 µM [rising, full curve, poor fit]
NC(=O)c1sc2nc3c(c(-c4cccs4)c2c1N)CCCCC3 | 0.794 µM [rising, partial curve] | 0.0891 µM [rising, full curve, poor fit]
O=C(O)C[CH2][Ge](=[O])[O][Ge](=[O])[CH2]CC(=O)O | 1.26 µM [falling, single point] | 5.62 µM [rising, single point]
CCC(=O)NC(=S)Nc1cccc(-c2nc3ncccc3o2)c1 | 35.5 µM [rising, single point] | 
Cc1cccc(N(C)C(=O)CN(C)S(=O)(=O)c2ccc3[nH]c4c(c3c2)CCCC4)c1 |  | 35.5 µM [rising, single point]
O=C(CN1C(=O)C2C3C=CC(C4CC34)C2C1=O)Oc1ccccc1 (stereo not given) | 5.01 µM [falling, single point] | 
C/C(=N\NC(=S)Nc1cc(S(=O)(=O)N2CCOCC2)ccc1Cl)c1ccccc1F |  | 15.8 µM [rising, partial curve]
CCOc1ccccc1N1C(=O)CC(Sc2n[nH]c(-c3ccccc3)n2)C1=O (stereo not given) | 14.1 µM [falling, single point] | 3.98 µM [falling, partial curve, poor fit]
O=C(c1cccc(C(F)(F)F)c1)N1CCOC12CCN(c1ncc(C(F)(F)F)cc1Cl)CC2 | 5.62 µM [rising, full curve] | 12.6 µM [rising, partial curve]
COc1ccc(CN(CCC(c2ccccc2)c2ccc(OC(C)C)cc2)C(=O)CCl)cc1OC (stereo not given) | 7.94 µM [falling, partial curve, poor fit] | 12.6 µM [falling, partial curve]
Cc1cccc(NC(=O)CSc2nc(C3CCCC3)nc3c2c(=O)n(C)c(=O)n3C)c1C | 0.891 µM [rising, partial curve] | 
CS(=O)(=O)N1CCC(Oc2ccccc2C(=O)N2CCN(CC3CC3)CC2)CC1 |  | 39.8 µM [falling, partial curve, poor fit]
Clc1ccccc1Cc1noc(CN2CCCCC2c2ccccn2)n1 (stereo not given) |  | 35.5 µM [falling, single point]
Cc1nc(N2CCN(C(=O)c3ccc(Cl)cc3)CC2)c(C#N)c2c1COC(C)(C)C2 | 15.8 µM [rising, single point] | 35.5 µM [rising, single point]
CCOc1ccc(-c2ccc(SCC(=O)Nc3nnc(CC)s3)nn2)cc1 | 35.5 µM [rising, single point] | 31.6 µM [rising, single point]
O=C(COc1ccccc1)N1N=C(c2cccnc2)CC1(O)C(F)(F)F (stereo not given) | 11.2 µM [rising, single point] | 12.6 µM [rising, single point]
CCc1cc2ccccc2nc1SCC(=O)N1CCN(C(=O)c2ccco2)CC1 | 14.1 µM [rising, single point] | 15.8 µM [rising, single point]
O=C(c1ccc(Cn2c(=S)[nH]c3ccccc3c2=O)cc1)N1CCN(c2ccccn2)CC1 | 28.2 µM [falling, partial curve, poor fit] | 
Cc1cc(Nc2ccccc2)nc2cc(O)ccc12 | 0.112 µM [falling, full curve] | 
N#CCCn1cc(C=C(C#N)C#N)c(-c2ccc(-c3ccccc3)cc2)n1 |  | 25.1 µM [rising, single point]
N/C(Cc1ccc(Cl)cc1Cl)=N\OC(=O)Cc1cccs1 | 14.1 µM [rising, single point] | 31.6 µM [rising, single point]
Cc1ccc2cc(-c3noc(C(C)(C)C)n3)c(=O)[nH]c2c1 | 12.6 µM [rising, partial curve] | 35.5 µM [rising, single point]
CCN(CC)c1ncnc2sc3c(c12)CCC3 | 14.1 µM [rising, partial curve] | 17.8 µM [rising, single point]
CCCn1c2ccccc2c2nnc(SC(CC)C(=O)Nc3cc(C)on3)nc21 (stereo not given) |  | 0.316 µM [rising, full curve, poor fit]
COc1ccc2sc(N(CCN(C)C)C(=O)c3cc(Cl)sc3Cl)nc2c1 | 2.51 µM [rising, partial curve] | 1.26 µM [rising, full curve]
C#CCNC(=O)c1cc2sccc2n1C |  | 20 µM [falling, partial curve, poor fit]

Quoted at random: 2 entries already listed, in no set order.
Structure (SMILES) | AC50 [1] | AC50 [2]
CCCn1c2ccccc2c2nnc(SC(CC)C(=O)Nc3cc(C)on3)nc21 (stereo not given) |  | 0.316 µM [rising, full curve, poor fit]
CCOc1ccc(-c2ccc(SCC(=O)Nc3nnc(CC)s3)nn2)cc1 | 35.5 µM [rising, single point] | 31.6 µM [rising, single point]

Reference: PubChem BioAssay AID1487 (National Center for Advancing Translational Sciences (NCATS), 2009)
